# In patent US20260284208A1, “SYSTEM” (Oxford University Innovation Limited, priority 2023, published 2026):
# Further values from the same series stand in other lists.
# Tested on: library of 8,380 IKZF3 degrons (ZF-eGFP/mCherry reporter) in Jurkat cells
# Test: Pooled library screen (FACS, NGS, limma voom LogFC of positive vs negative read counts)
# Type: cell-based, human
# Description: A library of 8,380 IKZF3 degrons was cloned into pLVX-Sprout to create the eGFP/mCherry protein degradation reporter plasmid pool. A lentivirus pool was then generated using the Lenti-X lentiviral vector production method.
# Jurkat cells were transduced at a multiplicity of infection of <0.3 with the lentivirus vector library in order to maximise the number of cells with a single integration. Transductions were carried out in 6 well TC-treated cell culture dishes (Falcon) with 3×10^6 cells per well. Cells were incubated for 2 days at 37° C. and 5% CO2 before the supernatant was removed and replaced with fresh media. 6 days post-transduction, mCherry+ cells were isolated via FACS using the FACS Aria Fusion (BD) in a buffer containing PBS (Gibco), 2 mM EDTA (Gibco), 25 mM HEPES (Sigma) and 1% BSA (Sigma). 8 days later, cells were treated with DMSO or a thalidomide analog for 18 hours at 37° C. and 5% CO2. mCherry+GFPlow and NOT(mCherry+GFPlow) cells were sorted by FACS using the FACS Aria Fusion (BD). DMSO treated cells were used to set the mCherry+GFPlow gate and dead cells were excluded from sorting by staining cells with 1 μg/mL DAPI (ThermoFisher). gDNA was isolated using the Maxwell RSC 48 (Promega). gDNA from cells that were unsorted and untreated were also isolated to determine the library representation on the day of compound treatment. Throughout the screen >600× coverage of the library was maintained. 3 biological replicates were carried out with a new transduction taking place each time.
# A two-step PCR was used where the first PCR (PCR1) amplified the integrated degron sequence from gDNA and the second PCR (PCR2) added Illumina adaptors and barcodes to permit multiplexing. See Supp F for PCR1 and PCR2 primers. Q5 Hot Start High-Fidelity 2× Master Mix (New England Biolabs) was used for both PCRs. Sufficient gDNA was amplified in PCR1 in order to maintain >600× coverage and amplicons were purified using solid phase reversible immobilization (SPRI) beads (Beckman Coulter). Purified PCR1 products were analysed on the Tapestation 4200 (Agilent) to confirm purity prior to proceeding to PCR2. Sufficient PCR1 product was amplified in PCR2 in order to maintain >600× coverage and amplicons were run on a 2% agarose TAE gel. Target bands were excised and purified using the NucleoSpin Gel and PCR Clean-up Kit (Machery Nagel). Amplicons were analysed on the Tapestation 4200 and quantified using Qubit dsDNA HS kit (ThermoFisher). PCR products were pooled and sequenced as paired-reads on the NovaSeq (Illumina) using a SP2 200 cycles kit (Illumina).
# Count distributions, percentage of read mapping, library coverage and replicate correlation per sample were assessed for QC purposes.
# To carry out the library screen, we used the same plasmid construct as in our earlier flow cytometry assays, but pooling all 8,380 mutants together into one Jurkat population, ensuring a copy number of one plasmid per cell (FIG. 4B). […] These GFP-negative cells were then separated from the remaining GFP-positive population using fluorescence activated cell sorting (FACS). These two populations were then sequenced and the relative abundance of every mutant in both populations compared to provide a log FC value for each mutant sequence. This value indicated how frequently a sequence is observed in the GFP-negative population relative to the GFP-positive population, and therefore how effective a degron it is for that particular IMID compound.
smiles,measurement,setting,value
O=C1CCC(N2C(=O)c3ccc(N4CCOCC4)cc3C2=O)C(=O)N1 (stereo not drawn) [B03],B03_logFC,"Degron-ID 6746, SEQ ID NO 4417, 46L_47S_49P_50I_52G_53F_54H_55C_67L_",2.022
same,B03_logFC,"Degron-ID 6753, SEQ ID NO 4315, 46L_47S_49P_50I_52G_53F_54Q_55C_67L_",2.184
same,B03_logFC,"Degron-ID 6755, SEQ ID NO 3780, 46L_47S_49P_50I_52G_53F_54S_55C_67L_",3.045
same,B03_logFC,"Degron-ID 6756, SEQ ID NO 3909, 46L_47S_49P_50I_52G_53F_54T_55C_67L",2.834
same,B03_logFC,"Degron-ID 6760, SEQ ID NO 3748, 46L_47T_49P_50I_52G_53F_54A_55C_67L_",3.125
same,B03_logFC,"Degron-ID 6771, SEQ ID NO 4404, 46L_47T_49P_50I_52G_53F_54N_55C_67L_",2.035
same,B03_logFC,"Degron-ID 6776, SEQ ID NO 3663, 46L_47T_49P_50I_52G_53F_54T_55C_67L_",3.31
same,B03_logFC,"Degron-ID 6780, SEQ ID NO 3686, 46L_47V_49P_50I_52G_53F_54A_55F_67L_",3.253
same,B03_logFC,"Degron-ID 6783, SEQ ID NO 4253, 46L_47V_49P_50I_52G_53F_54E_55C_67L_",2.29
same,B03_logFC,"Degron-ID 6785, SEQ ID NO 3716, 46L_47V_49P_50I_52G_53F_54G_55C_67L_",3.179
same,B03_logFC,"Degron-ID 6786, SEQ ID NO 4432, 46L_47V_49P_50I_52G_53F_54H_55C_67L_",2.001
same,B03_logFC,"Degron-ID 6788, SEQ ID NO 4346, 46L_47V_49P_50I_52G_53F_54K_55C_67L_",2.131
same,B03_logFC,"Degron-ID 6790, SEQ ID NO 4337, 46L_47V_49P_50I_52G_53F_54M_55C_67L_",2.149
same,B03_logFC,"Degron-ID 6794, SEQ ID NO 3800, 46L_47V_49P_50I_52G_53F_54R_55C_67L_",3.008
same,B03_logFC,"Degron-ID 6800, SEQ ID NO 3661, 46L_47W_49P_50I_52G_53F_54A_55C_67L_",3.322
same,B03_logFC,"Degron-ID 6804, SEQ ID NO 3781, 46L_47W_49P_50I_52G_53F_54F_55C_67L_",3.044
same,B03_logFC,"Degron-ID 6808, SEQ ID NO 3715, 46L_47W_49P_50I_52G_53F_54K_55C_67L_",3.179
same,B03_logFC,"Degron-ID 6809, SEQ ID NO 4319, 46L_47W_49P_50I_52G_53F_54L_55C_67L_",2.176
same,B03_logFC,"Degron-ID 6817, SEQ ID NO 3736, 46L_47W_49P_50I_52G_53F_54V_55C_67L_",3.148
same,B03_logFC,"Degron-ID 6818, SEQ ID NO 4422, 46L_47W_49P_50I_52G_53F_54W_55C_67L_",2.016
same,B03_logFC,"Degron-ID 6819, SEQ ID NO 3696, 46L_47W_49P_50I_52G_53F_54Y_55C_67L_",3.231
same,B03_logFC,"Degron-ID 6820, SEQ ID NO 3657, 46L_47Y_49P_50I_52G_53F_54A_55C_67L_",3.332
same,B03_logFC,"Degron-ID 6824, SEQ ID NO 3919, 46L_47Y_49P_50I_52G_53F_54F_55C_67L",2.815
same,B03_logFC,"Degron-ID 6825, SEQ ID NO 3824, 46L_47Y_49P_50I_52G_53F_54G_55C_67L_",2.963
same,B03_logFC,"Degron-ID 6827, SEQ ID NO 3865, 46L_47Y_49P_50I_52G_53F_54I_55C_67L",2.895
same,B03_logFC,"Degron-ID 6828, SEQ ID NO 3807, 46L_47Y_49P_50I_52G_53F_54K_55C_67L_",2.998
same,B03_logFC,"Degron-ID 6830, SEQ ID NO 3853, 46L_47Y_49P_50I_52G_53F_54M_55C_67L",2.917
same,B03_logFC,"Degron-ID 6831, SEQ ID NO 3839, 46L_47Y_49P_50I_52G_53F_54N_55C_67L_",2.946
same,B03_logFC,"Degron-ID 6838, SEQ ID NO 4333, 46L_47Y_49P_50I_52G_53F_54W_55C_67L_",2.154
same,B03_logFC,"Degron-ID 6839, SEQ ID NO 3760, 46L_47Y_49P_50I_52G_53F_54Y_55C_67L_",3.11
same,B03_logFC,"Degron-ID 7613, SEQ ID NO 4385, 46L_47A_49E_50I_52G_53F_54Q_55C_67L_",2.061
same,B03_logFC,"Degron-ID 7614, SEQ ID NO 3929, 46L_47A_49E_50I_52G_53F_54R_55C_67L",2.792
same,B03_logFC,"Degron-ID 7615, SEQ ID NO 3827, 46L_47A_49E_50I_52G_53F_54S_55C_67L_",2.958
same,B03_logFC,"Degron-ID 7616, SEQ ID NO 3668, 46L_47A_49E_50I_52G_53F_54T_55C_67L_",3.297
same,B03_logFC,"Degron-ID 7636, SEQ ID NO 3941, 46L_47C_49E_50I_52G_53F_54T_55C_67L",2.777
same,B03_logFC,"Degron-ID 7680, SEQ ID NO 3796, 46L_47F_49E_50I_52G_53F_54A_55C_67L_",3.019
same,B03_logFC,"Degron-ID 7683, SEQ ID NO 4316, 46L_47F_49E_50I_52G_53F_54E_55C_67L_",2.182
same,B03_logFC,"Degron-ID 7684, SEQ ID NO 4353, 46L_47F_49E_50I_52G_53F_54F_55C_67L_",2.118
same,B03_logFC,"Degron-ID 7686, SEQ ID NO 3751, 46L_47F_49E_50I_52G_53F_54H_55C_67L_",3.123
same,B03_logFC,"Degron-ID 7687, SEQ ID NO 3782, 46L_47F_49E_50I_52G_53F_54I_55C_67L_",3.042
same,B03_logFC,"Degron-ID 7688, SEQ ID NO 3731, 46L_47F_49E_50I_52G_53F_54K_55C_67L_",3.154
same,B03_logFC,"Degron-ID 7690, SEQ ID NO 3755, 46L_47F_49E_50I_52G_53F_54M_55C_67L_",3.117
